Paper PMC7925594
These are yes or no findings as the source states them, for the method shown. For some of these results: In cells and extracts the contact can be indirect. Some entries that bind do so weakly or less than the wild type. For some of these results: Where a sequence is shown, tags or fusion partners need not be part of it.

The chains behind the UniProt entries cited, without tags or fusion partners.
UniProt O88522: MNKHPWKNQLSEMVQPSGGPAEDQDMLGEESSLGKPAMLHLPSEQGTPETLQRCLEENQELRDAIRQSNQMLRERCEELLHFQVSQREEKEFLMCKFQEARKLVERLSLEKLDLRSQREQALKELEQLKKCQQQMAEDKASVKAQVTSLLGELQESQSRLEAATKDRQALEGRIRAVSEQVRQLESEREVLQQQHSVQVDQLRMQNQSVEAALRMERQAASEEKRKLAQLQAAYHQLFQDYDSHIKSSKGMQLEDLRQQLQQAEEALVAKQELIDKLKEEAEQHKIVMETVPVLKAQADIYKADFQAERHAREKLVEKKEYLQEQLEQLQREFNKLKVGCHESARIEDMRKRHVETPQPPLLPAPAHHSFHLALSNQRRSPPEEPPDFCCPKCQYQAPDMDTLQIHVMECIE
UniProt Q9Y6K9: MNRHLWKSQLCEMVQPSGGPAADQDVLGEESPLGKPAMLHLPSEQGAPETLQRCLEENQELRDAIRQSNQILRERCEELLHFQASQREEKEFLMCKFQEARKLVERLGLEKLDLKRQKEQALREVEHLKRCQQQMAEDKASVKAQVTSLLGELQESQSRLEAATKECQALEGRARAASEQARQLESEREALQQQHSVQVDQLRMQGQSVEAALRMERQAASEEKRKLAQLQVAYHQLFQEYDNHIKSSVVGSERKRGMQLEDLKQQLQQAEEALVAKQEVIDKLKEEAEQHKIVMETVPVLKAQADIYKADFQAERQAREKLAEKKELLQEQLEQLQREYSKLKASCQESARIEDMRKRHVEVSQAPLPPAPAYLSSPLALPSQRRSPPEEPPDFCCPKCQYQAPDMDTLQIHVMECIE

How the values were obtained:
[1] = target: NEMO, endogenous in mouse peritoneal macrophages (mouse (endogenous in peritoneal macrophages)) (UniProt O88522); experiment: co-IP; endogenous proteins in wild-type and N4bp1-/- mouse peritoneal macrophages, unstimulated or stimulated with Pam3CSK4; NP-40 lysis buffer; lysates incubated overnight at 4 °C with NEMO antibody and Protein G magnetic beads, rabbit IgG as control; immunoblot
[2] = target: Flag-tagged NEMO (UniProt Q9Y6K9); experiment: co-IP; HEK293T or N4BP1-/- HEK293T cells co-transfected with HA-N4BP1 (or deletion mutants) and Flag-NEMO (or deletion mutants); NP-40 lysis buffer; immunoprecipitation and immunoblot
[3] = target: Flag-tagged NEMO (UniProt Q9Y6K9); experiment: co-IP; purified recombinant HA-N4BP1 and Flag-NEMO incubated without or with linear hepta-ubiquitin (K63-linked chains in Supplementary Fig. 5b) in assay buffer (50 mM Tris-HCl pH 7.4, 150 mM NaCl, 1 mM dithiothreitol), 2 h at 4 °C; immunoprecipitation with anti-Flag; ubiquitin chains enhanced the interaction dose-dependently; both purified

Binder	binding [1]	binding [2]	binding [3]
IKKβ, endogenous in mouse peritoneal macrophages (protein, UniProt O88351 1-757) MSWSPSLPTQTCGAWEMKERLGTGGFGNVIRWHNQATGEQIAIKQCRQELSPKNRNRWCLEIQIMRRLNHPNVVAARDVPEGMQNLAPNDLPLLAMEYCQGGDLRRYLNQFENCCGLREGAVLTLLSDIASALRYLHENRIIHRDLKPENIVLQQGEKRLIHKIIDLGYAKELDQGSLCTSFVGTLQYLAPELLEQQKYTVTVDYWSFGTLAFECITGFRPFLPNWQPVQWHSKVRQKSEVDIVVSEDLNGAVKFSSSLPFPNNLNSVLAERLEKWLQLMLMWHPRQRGTDPQYGPNGCFRALDDILNLKLVHVLNMVTGTVHTYPVTEDESLQSLKTRIQENTGILETDQELLQKAGLVLLPDKPATQCISDSKTNEGLTLDMDLVFLLDNSKINYETQITPRPPPESVSCILQEPKRNLSFFQLRKVWGQVWHSIQTLKEDCNRLQQGQRAAMMSLLRNNSCLSKMKNAMASTAQQLKAKLDFFKTSIQIDLEKYKEQTEFGITSDKLLLAWREMEQAVEQCGRENDVKHLVERMMALQTDIVDLQRSPMGRKQGGTLDDLEEQARELYRKLREKPRDQRTEGDSQEMVRLLLQAIQSFEKKVRVIYTQLSKTVVCKQKALELLPKVEEVVSLMNEDERTVVRLQEKRQKELWNLLKIACSKVRGPVSGSPDSMNVSRLSHPGQLMSQPSSACDSLPESDKKSEELVAEAHALCSRLESALQDTVKEQDRSFTTLDWSWLQMEDEERCSLEQACD	binds		
HA-tagged N4BP1 (full-length) (protein, UniProt O75113 1-896) MAARAVLDEFTAPAEKAELLEQSRGRIEGLFGVSLAVLGALGAEEPLPARIWLQLCGAQEAVHSAKEYIKGICEPELEERECYPKDMHCIFVGAESLFLKSLIQDTCADLCILDIGLLGIRGSAEAVVMARSHIQQFVKLFENKENLPSSQKESEVKREFKQFVEAHADNYTMDLLILPTSLKKELLTLTQGEENLFETGDDEVIEMRDSQQTEFTQNAATGLNISRDETVLQEEARNKAGTPVSELTKQMDTVLSSSPDVLFDPINGLTPDEEALSNERICQKRRFSDSEERHTKKQFSLENVQEGEILHDAKTLAGNVIADLSDSSADSENLSPDIKETTEEMEYNILVNFFKTMGYSQEIVEKVIKVYGPSTEPLLLLEEIEKENKRFQEDREFSAGTVYPETNKTKNKGVYSSTNELTTDSTPKKTQAHTQQNMVEKFSQLPFKVEAKPCTSNCRINTFRTVPIEQKHEVWGSNQNYICNTDPETDGLSPSVASPSPKEVNFVSRGASSHQPRVPLFPENGLHQQPEPLLPNNMKSACEKRLGCCSSPHSKPNCSTLSPPMPLPQLLPSVTDARSAGPSDHIDSSVTGVQRFRDTLKIPYKLELKNEPGRTDLKHIVIDGSNVAITHGLKKFFSCRGIAIAVEYFWKLGNRNITVFVPQWRTRRDPNVTEQHFLTQLQELGILSLTPARMVFGERIASHDDRFLLHLADKTGGIIVTNDNFREFVNESVSWREIITKRLLQYTFVGDIFMVPDDPLGRSGPRLEEFLQKEVCLRDMQPLLSALPNVGMFDPSFRVPGTQAASTSHQPPTRIQGAPSSHWLPQQPHFPLLPALPSLQQNLPMPAQRSSAETNELREALLKIFPDSEQRLKIDQILVAHPYMKDLNALSAMVLD		binds	binds
N4BP1, endogenous in mouse peritoneal macrophages (protein, UniProt Q6A037 1-893) MAARVVLDEFTAPAEKAALLERSRGRIEALFGVGLAVLGALGAEEPLPARIWLQLRGAQEAVHSAKEYIKGICEPELEEKECYPKAMHCIFVGAQSLFLKSLIQDTCADLCVLDTGLLGIRGSAEAVVMARSHIQQFVKLFESNENLPSNQRESEIKREFRQFVEAHADSYTMDLLILPTSLKKELLSLTQGEESLFETDDDVITVGDVRPPEYTQSAATGPSSARDEVVVQEDSRNKARTPVSELTKHMDTVFSSSPDVLFVPVNGLSPDEDALSKDRVCHKRRSSDTEERHTKKQFSLENVPEGELLPDGKGSAGNEVIDLSDPASNSTNLSPDGKDTTEEMEYNILVNFFKTMGYSQEIVEKVIREYGPSTEPLLLLEEIEKENKRLQEDRDFPPCTVYPDASQSRNAGVGSTTNELTADSTPKKAQSHTEQSMVERFSQLPFKDSKHCTSNCKVNSFRTVPVGQKQEIWGSKQNSSCTVDLETDGHSASAASASPKDISFVSRGASGHQQRNPAFPENGFQQQTEPLLPNNTKPACEKRSGSCSSPQPKPNYPPLSPPLPLPQLLPSVTEARLGGSSDHIDSSVTGVQRFRDTLKIPYKLELKNEPGRADLKHIVIDGSNVAITHGLKKFFSCRGIAIAVEYFWKLGNRNITVFVPQWRTRRDPNITEQHFLTQLQELGILSLTPARMVFGERIASHDDRFLLHLADKTGGIIVTNDNFREFVTESVSWREIITKRLLQYTFVGDIFMVPDDPLGRNGPRLEEFLRKEAFLRHMQPLLNALPSVGTFDPGFRSPSTQVANNSHQPPPRIQTSSSPWLPQQSHFTALATLPSMQQNPPLPAQRSSAETSELREALLKIFPDSEQKLKIDQILAAHPYMKDLNALSALVLD	binds		
